SMILES strings stand for the structures. Most of the strong results are listed elsewhere, so they are rarer here than in the full data.

This experiment concerns the target T1, Protein deacetylase HDAC6 (Homo sapiens) (UniProt Q9UBN7).
T1 sequence (whole entry): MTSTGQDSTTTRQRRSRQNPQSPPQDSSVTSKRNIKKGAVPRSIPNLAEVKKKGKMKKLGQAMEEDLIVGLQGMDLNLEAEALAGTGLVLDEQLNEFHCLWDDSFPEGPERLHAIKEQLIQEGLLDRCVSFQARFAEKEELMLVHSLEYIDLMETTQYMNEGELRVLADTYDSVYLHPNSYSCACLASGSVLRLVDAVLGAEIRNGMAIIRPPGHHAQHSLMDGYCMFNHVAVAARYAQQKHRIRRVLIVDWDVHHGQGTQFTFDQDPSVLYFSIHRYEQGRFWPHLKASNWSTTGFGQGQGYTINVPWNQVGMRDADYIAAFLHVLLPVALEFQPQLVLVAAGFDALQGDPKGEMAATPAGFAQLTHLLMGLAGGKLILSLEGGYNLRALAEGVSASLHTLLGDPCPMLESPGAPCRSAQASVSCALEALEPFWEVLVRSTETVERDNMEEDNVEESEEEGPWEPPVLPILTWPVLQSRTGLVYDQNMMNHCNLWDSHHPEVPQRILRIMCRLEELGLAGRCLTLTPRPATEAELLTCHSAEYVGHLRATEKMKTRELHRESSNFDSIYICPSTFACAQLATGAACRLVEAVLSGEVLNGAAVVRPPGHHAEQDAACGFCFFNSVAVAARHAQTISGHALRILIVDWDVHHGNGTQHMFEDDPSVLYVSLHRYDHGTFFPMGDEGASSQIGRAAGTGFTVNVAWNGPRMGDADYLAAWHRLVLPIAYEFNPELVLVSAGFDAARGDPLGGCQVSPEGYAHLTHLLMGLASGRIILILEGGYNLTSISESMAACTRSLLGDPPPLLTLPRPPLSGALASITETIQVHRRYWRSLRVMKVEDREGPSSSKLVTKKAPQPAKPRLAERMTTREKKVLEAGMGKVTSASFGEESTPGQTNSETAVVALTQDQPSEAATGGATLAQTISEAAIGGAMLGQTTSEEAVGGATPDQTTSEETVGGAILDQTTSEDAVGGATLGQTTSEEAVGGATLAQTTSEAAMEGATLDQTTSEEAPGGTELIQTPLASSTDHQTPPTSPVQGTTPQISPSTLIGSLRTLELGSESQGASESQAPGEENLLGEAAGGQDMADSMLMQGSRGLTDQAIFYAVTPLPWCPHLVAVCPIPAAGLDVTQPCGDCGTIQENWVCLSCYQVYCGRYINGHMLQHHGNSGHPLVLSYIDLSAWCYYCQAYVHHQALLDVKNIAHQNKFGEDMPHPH
Particulars: at 10 µM.
With `O=C1NC(=O)c2c1c(-c1ccccc1)cc1[nH]c3ccc(O)cc3c21`, the inhibition worked out at 2.58%.
As for `Cc1ccc(C(=O)NCCCCCC(=O)Nc2ccccc2N)cc1`, the figure is -1.71%.
As for `CCC(C)C(C(=O)OCC[N+](C)(CC)CC)c1ccccc1` (configuration not stated), the figure is 0.49%; as for `COC(=O)[C@H](CCCNC(=N)N)NS(=O)(=O)c1ccc(C)cc1`, -5.01%.
As for `Cc1nc2c(-c3cnc(N)nc3)nc(N3CCOCC3)nc2n1C(C)C`, the figure is 1.6%.
As to `CN1[C@@H]2CC[C@H]1C[C@@H](OC(=O)C(O)c1ccccc1)C2` (some centres not stated), the inhibition was 7.69%.
As for `Cc1ccccc1-n1c(Cn2nc(-c3cccc(O)c3)c3c(N)ncnc32)nc2cccc(C)c2c1=O`, the figure is -2.84%.

As usually defined, the inhibition is the relative decrease from the control value, in per cent.
